# In PubChem BioAssay AID651640 (Broad Institute, 2012):
# Hit rate of the full screen: of about 350,000 compounds, about 6,000 (1.7%) were called active. Inconclusive means that the source gave no clear call. Such entries were picked first, then a sample of the others. No stated cut-off is given here; in the data, active means CPE inhibition above about 20% (passing the limit was not always enough); inconclusive means no clear call, values can overlap the other calls; tested in BHK-21 cells. More than one record can exist for a structure, and the calls need not agree.
# Test: protection of cells from dengue 2 killing – plate reader, single concentration, primary screen (AID 651640);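 further: 0% = median of neutral control wells and 100% = median of positive control wells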
# Conditions: DENV2-infected cells, cytopathic effect rescue, at 9.99 µM, active compounds read high
row,Structure (SMILES),CPE inhibition
1,CO[C@@H]1CN(C)C(=O)c2cc(NC(=O)c3ccccc3F)ccc2OC[C@H](C)N(CC2CCOCC2)C[C@H]1C,inactive: -4.77%
2,COc1ccc2c(C)c(CCC(=O)NCCCN3CCCC3=O)c(=O)oc2c1C,inactive: 8.53%
3,CNC(=O)C[C@@H]1CC[C@@H]2[C@H](COC[C@H](O)CN2C(=O)c2ccccn2)O1,active: 69.3%
4,CCOC(=O)c1ccsc1NC(=O)c1ccco1,inconclusive: 34.1%
5,Cc1ccc(S(=O)(=O)NCC[C@@H]2CC[C@@H](NC(=O)c3cnccn3)[C@@H](CO)O2)cc1,inconclusive: 22.5%
6,C[C@@H]1CCCCO[C@H](CN(C)C(=O)Nc2ccc(C(F)(F)F)cc2)[C@@H](C)CN([C@H](C)CO)C(=O)c2cc(NC(=O)c3ccncc3)ccc2O1,active: 21%
7,Cc1noc(C)c1S(=O)(=O)Nc1ccc2c(c1)CC(=O)N([C@@H](C)CO)C[C@H](C)[C@@H](CN(C)S(=O)(=O)c1ccc(F)cc1)O2,inconclusive: 33.9%
8,O=C(Cc1ccc(NC(=O)C2CCCN(C(=O)CCc3ccccc3)C2)cc1)Nc1cccc(C(=O)N2CCCCC2)c1 (stereo not given),inconclusive: 54.6%
9,Cn1cnc(CCNC(=O)C[C@@H]2CC[C@@H]3[C@H](COC[C@@H](O)CN3C(=O)Nc3ccc(F)cc3)O2)c1,inactive: -1.52%
10,COC(=O)CCC(=O)OC1(C)C(=O)C2=CN(Cc3ccc(OC)cc3)C(c3ccc(OC)cc3)=CC2=C(Br)C1=O (stereo not given),active: 22.9%
11,COc1cccc(C(=O)N2CCC2(C)C(=O)O)c1 (stereo not given),inconclusive: 32.9%
12,CCn1c(SCC(=O)NC2=NCCS2)nnc1C(C)NC(=O)c1ccccc1F (stereo not given),inconclusive: 53.3%
13,CC(Nc1nc2ccccc2n2cnnc12)c1ccccc1 (stereo not given),inconclusive: 28.6%
14,Cc1cc(NC(=O)c2c(-c3ccccc3Cl)noc2C)no1,inactive: -1.13%
15,Cc1cc(C)cc(NC(=O)C2CCN(S(=O)(=O)c3ccc4[nH]c(=O)ccc4c3)CC2)c1,inconclusive: 34.5%
16,CC1CC1C(=O)Nc1cc(C(F)(F)F)ccc1N1CCOCC1 (stereo not given),inactive: -4.45%
17,CCN1C(=O)c2ccccc2S(=O)(=O)c2ccc(C(=O)NCc3cccnc3)cc21,inconclusive: 21.1%
18,CC(C)NC(=O)N(C)C[C@@H]1OCCCC[C@@H](C)Oc2ccc(NC(=O)CCC(F)(F)F)cc2C(=O)N([C@@H](C)CO)C[C@@H]1C,inactive: -2.86%
19,CO[C@H]1CC[C@H]2CCN(C)C(=O)CCCN(C)C(=O)c3cccc(C#N)c3OC[C@@H]1O2,inactive: 6.47%
20,CC(=O)N1[C@H](C(=O)Nc2ccccc2)[C@@H](CO)[C@@H]2Cn3c(ccc(C4=CCCC4)c3=O)[C@@H]21,inactive: -9.07%

# Part of the list above, with tabs:
row	Structure (SMILES)	CPE inhibition
2	COc1ccc2c(C)c(CCC(=O)NCCCN3CCCC3=O)c(=O)oc2c1C	inactive: 8.53%
13	CC(Nc1nc2ccccc2n2cnnc12)c1ccccc1 (stereo not given)	inconclusive: 28.6%
